Source: patent US20030186355A1, “Methods for selecting and producing t cell peptide epitopes and vaccines incorporating said selected epitopes” (priority 2000, published 2003)
Like-named read-outs stand apart in the source and are kept apart here.

Key:
20S proteasomes [1] = assay: In vitro proteasome mediated digestions of 27-mer PRAME polypeptides; assay type: biochemical, human; conditions: incubation 1 h, 4 h, 24 h at 37° C.
20S proteasomes [2] = assay: Proteasome digestion assay of 26-mer synthetic peptide substrates, fragments analysed by electrospray mass spectrometry; assay type: biochemical, mouse; conditions: for Intensity as a percentage of the total amount of intensity of the peak fragments: fragments of substrates 5A Moloney, 5B AKV, 5C Friend MuLV
[3] = correct C-terminal residue of the CTL-epitope generated from the 26-mer substrate

CC(C)C[C@H](NC(=O)[C@@H](NC(=O)[C@H](CC(=O)O)NC(=O)[C@H](CC(C)C)NC(=O)CNC(=O)[C@H](CC(=O)O)NC(=O)[C@H](CC(C)C)NC(=O)[C@@H](NC(=O)[C@H](C)N)C(C)C)C(C)C)C(=O)O
generation/excision of the peptide by the proteasome from 27-mer PRAME polypeptide (20S proteasomes [1]): not found

CC(C)C[C@H](NC(=O)CN)C(=O)N[C@@H](CC(=O)O)C(=O)N[C@H](C(=O)N[C@@H](CC(C)C)C(=O)N[C@@H](CC(C)C)C(=O)N[C@@H](C)C(=O)N[C@@H](CCC(N)=O)C(=O)N[C@@H](CCC(=O)O)C(=O)N[C@H](C(=O)O)C(C)C)C(C)C
generation/excision of the peptide by the proteasome from 27-mer PRAME polypeptide (20S proteasomes [1]): not found

CSCC[C@H](N)C(=O)N[C@@H](CC(C)C)C(=O)N[C@H](C(=O)N[C@@H](CC(=O)O)C(=O)N[C@H](C(=O)N[C@@H](CO)C(=O)N1CCC[C@H]1C(=O)N[C@@H](CCC(=O)O)C(=O)N1CCC[C@H]1C(=O)N[C@@H](CC(C)C)C(=O)O)C(C)C)[C@@H](C)O
generation/excision of the peptide by the proteasome from 27-mer PRAME polypeptide (20S proteasomes [1]): not generated

CC[C@H](C)[C@H](NC(=O)[C@@H](N)CO)C(=O)N[C@@H](CO)C(=O)N[C@@H](C)C(=O)N[C@@H](CC(C)C)C(=O)N[C@@H](CCC(N)=O)C(=O)N[C@@H](CO)C(=O)N[C@@H](CC(C)C)C(=O)N[C@@H](CC(C)C)C(=O)O
generation/excision of the peptide by the proteasome from 27-mer PRAME polypeptide (20S proteasomes [1]): not generated

CC(C)C[C@H](NC(=O)[C@@H](N)CO)C(=O)N[C@@H](Cc1ccc(O)cc1)C(=O)N[C@@H](CO)C(=O)N[C@@H](Cc1ccccc1)C(=O)N1CCC[C@H]1C(=O)N[C@@H](CCC(=O)O)C(=O)N1CCC[C@H]1C(=O)N[C@@H](CCC(=O)O)C(=O)N[C@@H](C)C(=O)O
generation/excision of the peptide by the proteasome from 27-mer PRAME polypeptide (20S proteasomes [1]): already found after 1 h digestion in significant quantities

CC(C)C[C@H](NC(=O)[C@H](C)NC(=O)[C@H](CCC(N)=O)NC(=O)[C@H](CC(C)C)NC(=O)[C@H](CS)NC(=O)[C@H](CCC(N)=O)NC(=O)[C@H](CC(C)C)NC(=O)[C@H](CO)NC(=O)[C@H](CC(C)C)NC(=O)[C@@H](N)Cc1ccccc1)C(=O)O [FLSLQCLQAL]
generation/excision of the peptide by the proteasome from 27-mer PRAME polypeptide (20S proteasomes [1]): not C-terminally generated

QSLLQHLIGL [PRAME aa; 424-433 digestion fragment]
generation/excision of the peptide by the proteasome from 27-mer PRAME polypeptide (20S proteasomes [1]): generated abundantly after 1 h digestion

SSWDFITV [reference compound]
generation of peptide fragment by the 20S proteasome (20S proteasomes [2]): only generated in very low amounts

SWDFITV [proteasome fragment of substrate 5A]
Intensity as a percentage of the total amount of intensity of the peak fragments (20S proteasomes [2]; digestion time 1 h): 45% | Intensity as a percentage of the total amount of intensity of the peak fragments (20S proteasomes [2]; digestion time 4 h): 64% | Intensity as a percentage of the total amount of intensity of the peak fragments (20S proteasomes [2]; digestion time 24 h): 72%

SWDYITV [proteasome fragment of substrate 5B]
Intensity as a percentage of the total amount of intensity of the peak fragments (20S proteasomes [2]; digestion time 4 h): 41% | Intensity as a percentage of the total amount of intensity of the peak fragments (20S proteasomes [2]; digestion time 24 h): 75%

SWDYITVD [proteasome fragment of substrate 5C]
Intensity as a percentage of the total amount of intensity of the peak fragments (20S proteasomes [2]; digestion time 4 h): 35% | Intensity as a percentage of the total amount of intensity of the peak fragments (20S proteasomes [2]; digestion time 24 h): 69%

SWVTLSTDDPVIDRLYLSSHRGVIAD [26-mer substrate, Measles HA, reference compound]
correct C-terminus (20S proteasomes [2]): yes

TGRASWKPSSSWDYITV [proteasome fragment of substrate 5B]
Intensity as a percentage of the total amount of intensity of the peak fragments (20S proteasomes [2]; digestion time 1 h): 14% | Intensity as a percentage of the total amount of intensity of the peak fragments (20S proteasomes [2]; digestion time 4 h): 12%

TGRASWKPSSSWDYITVSNNLTSDQA [26-mer substrate 5B, AKV MuLV, reference compound]
Intensity as a percentage of the total amount of intensity of the peak fragments (20S proteasomes [2]; digestion time 1 h): 57%

TGRAYWKPSSSDWFITV [proteasome fragment of substrate 5A]
Intensity as a percentage of the total amount of intensity of the peak fragments (20S proteasomes [2]; digestion time 1 h): 18%

TGRAYWKPSSSWDFITVNNNLTSDQA [26-mer substrate, MuLV (Moloney), reference compound]
correct C-terminus (20S proteasomes [2]): yes | C-terminal cleavage site by the 20S proteasome (20S proteasomes [2]; listed as Moloney MuLV peptide substrate): preferential cleavage after the C-terminal V | C-terminal cleavage site by the 20S proteasome (20S proteasomes [2]; listed as SA): cleavage after V

TGRAYWKPSSSWDYITVD [proteasome fragment of substrate 5C]
Intensity as a percentage of the total amount of intensity of the peak fragments (20S proteasomes [2]; digestion time 1 h): 21% | Intensity as a percentage of the total amount of intensity of the peak fragments (20S proteasomes [2]; digestion time 4 h): 25%

TGRAYWKPSSSWDYTTVDNNLTTNQA [26-mer substrate 5C, Friend MuLV, reference compound]
Intensity as a percentage of the total amount of intensity of the peak fragments (20S proteasomes [2]; digestion time 1 h): 60% | C-terminal cleavage site by the 20S proteasome (20S proteasomes [2]; listed as 5C): cleavage after D | C-terminal cleavage site by the 20S proteasome (20S proteasomes [2]; listed as Friend MuLV peptide substrate): no cleavage after valine, but dominantly after aspartic acid (D)

TIRRAYPDTNLLNDRVLRAMLKTEET [26-mer substrate, Cyclin D1, reference compound]
correct C-terminus (20S proteasomes [2]; [3]): yes

YEPPEAGSEYTTIHYKYMCNSSCMGG [26-mer substrate, P53, reference compound]
correct C-terminus (20S proteasomes [2]; [3]): yes
